Data published in patent US8058442B2 (Technion Research and Development Foundation Ltd., priority 2002, dated 2011).

test: general procedure: Fmoc solid-phase peptide synthesis; Rink amide resin; PyBOP/NMM; DCC/HOBt when necessary; conditions: conjugation step

Substance	conjugation yield
[Cys^8(HQ)]-Substance P	75%
[D-Cys^6(HQ-Pr)]GnRH	70%
[L-Cys^5(HQ-Pr)]GnRH	78%
